Reference: paper PMC8115037, “Paracoccus denitrificans: a genetically tractable model system for studying respiratory complex I” (Scientific Reports, 2021)

Target: T1, Nqo5 (NDUFS3) subunit of P. denitrificans complex I with a C-terminal Ala6-His6 tag (P. denitrificans) (UniProt P29917)
T1 sequence: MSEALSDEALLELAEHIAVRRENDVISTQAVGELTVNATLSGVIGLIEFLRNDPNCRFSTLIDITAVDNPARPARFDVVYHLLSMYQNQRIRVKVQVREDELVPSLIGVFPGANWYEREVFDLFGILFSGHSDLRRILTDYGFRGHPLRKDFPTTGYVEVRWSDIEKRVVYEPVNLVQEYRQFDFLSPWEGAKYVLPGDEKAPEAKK
Assay: affinity purification with mass spectrometry; DDM-solubilised P. denitrificans membranes on a HisTrap HP Ni column by the His6 tag on Nqo5 (wash 40-80 mM imidazole, elution 200 mM imidazole, 20 mM MES pH 6.5, 400 mM NaCl, 0.1% DDM), then Superdex 200 SEC; SDS-PAGE bands digested with trypsin, MALDI peptide mass fingerprinting

Substance | binding
transcription termination factor Rho | no binding
PdNUYM, supernumerary subunit of P. denitrificans complex I | binds
elongation factor Tu | no binding
PdNUMM, supernumerary subunit of P. denitrificans complex I | binds
PdN7BM, supernumerary subunit of P. denitrificans complex I | binds

These are yes or no findings as the source states them, for the method shown. In cells and extracts the contact can be indirect. Here binding means that the protein was enriched with, or labelled near, the bait; the list need not be complete. A no says only that the protein was not detected with the bait. Where a sequence is shown, tags or fusion partners need not be part of it.
